Consider two compounds from patent EP0748792A1 (priority 1994, dated 1995).

The data set deals with total acetylating capability of the organism. Briefly: Acetylating capability of white rats (sodium sulfacyl acetylation, arylamine content in urine). In kind it is in vivo. To be noted: agent 20 mg/kg i.p. 4 days. On the procedure:
It is known that intact animals, receiving sufficient doses of pantothenic acid, have accelerated reactions of arylamine biotransformation. Therefore, there is the possibility to regulate the acetylating processes in the bodies of people and animals. In the examples given below the total acetylating capability of the organism was assessed using the method of quantitative determination of the arylamine content in the urine examined.
As a subject for acetylating, aromatic amines were chosen, as their usage makes it possible to assess both the activity of N-acetylamine transferase and (indirectly) the content of acetyl CoA.
As a subject for examination sodium sulfacyl was chosen. […] 14 animals were included in each group. The examined agent was injected intraperitoneally at a dose of 20 mg/kg. On the 4th day, 4 hours after the last injection of the examined agent, the sodium sulfacyl solution in a dose of 20 mg/kg was injected intraperitoneally. All the rats were separated into exchangeable cages for urine gathering. The collected data were compared with the control groups of animals (group I - only sodium sulfacyl in a dose of 20 mg/kg, and group II - calcium pantothenate).

Take `CC(C)(CO)[C@@H](O)C(=O)NCCC(=O)O` [Ca D-pantothenate, calcium D-pantothenate, reference compound]: the “volume of excreted urine in comparison with the control group I” value was “did not change”.
The same measure for “calcium ketopantothenate [Ca ketopantothenate]”: “did not change”.
